# Percent effect of library compounds

The filed quantity is “Percent Effect” (%). The record does not define 0% and 100%; most values in the screen are far below 50% and negative numbers occur (in some assays of this library far below -100). The compounds are a random part of those screened.

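Assay of Toxoplasma gondii numbers, read through their beta-galactosidase reporter with a colour substrate. Compounds at 50 µM. Higher reads as fewer parasites (inferred from which compounds were picked for retests). Of about 18,000 compounds tested this way, about 170 (0.94%) reached 50% or more in at least one test.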

For CN(C)CCNC(=O)NC1CCCCC1 the result was -33.95%. Result for CN(C)S(=O)(=O)N1CCCC1c1ccsc1 (configuration not stated) was 2.745%. Cc1ccc2c(c1)OCCN2C(=O)c1nccnc1N read 1.008%. Result for CC(=O)NCCN1CCN(Cc2ccccc2F)CC1 was 2.766%.

O=C(CCc1nnc(-c2ccsc2)o1)NC1=NCCS1 read -4.023%. Cc1ccc2c(c1)OCCN2C(=O)c1cnsn1 read -9.54%. CC(C)OCC(=O)N1C[C@H](C2CC2)[C@@H](N)C1 read 5.615%. CO[C@H]1CNCC1NC(=O)c1sccc1Br (some centres not stated) read 10.41%.

With CCC1c2ccsc2CCN1C(=O)c1ccc(CN)o1 (configuration not stated) the screen gave -7.834%. For Cc1cnc(NC(=O)CCn2cncn2)s1 the result was 3.947%. Cc1ccc(O)c(CNn2cnnc2)c1 read 0.4357%. With CC(C)OCC(=O)N1C[C@@H](C)[C@](O)(C2CC2)C1 the screen gave -6.372%.

With CCCNC1CCS(=O)(=O)C1 (configuration not stated) the screen gave -0.8782%. For CCC(OCCO)c1ccccc1 (configuration not stated) the result was -3.537%. Result for O=C(COCC(F)(F)F)NC1CCc2nccn2C1 (configuration not stated) was 1.266%. With O=C(NCCNCc1ccccc1)c1ccco1 the screen gave 4.79%.

With CN(C)c1cc(CNC(=O)C2CCCO2)ccn1 (configuration not stated) the screen gave 1.265%. Result for CC(C)C(NC(=O)c1ccco1)C(=O)Nc1nccs1 (configuration not stated) was -19.69%. Cc1cccc(-n2nnnc2C(C)(C)N2CCCC2)c1 read -9.882%. For COCCn1ccnc1CN1CC[C@](C)(O)C(C)(C)C1 the result was 14.31%.

Result for COc1ccccc1CNc1ccc(S(N)(=O)=O)cc1 was -1.307%. Result for CN1CCC(NCCCN2CCOCC2)CC1 was -14.35%. Cn1ccnc1C(O)C1CCNCC1 (configuration not stated) read 1.866%. Result for COCCNC(=O)CN(C)CCc1ccccc1 was 4.563%.

For CC(CN)N(C)C(=O)Cc1ccc(F)cc1F (configuration not stated) the result was -5.936%. CC(C)(C)CC(N)CN (configuration not stated) read -4.19%. C=C(C)COc1cccc(CNCCNC(C)=O)c1 read -12.85%. With Cc1nnc(SCCCNC(=O)CC2COCCN2)s1 (configuration not stated) the screen gave 0.8917%.

Cc1cc(S(=O)(=O)N(C)Cc2nnc[nH]2)c(C)o1 read -5.333%. CCOc1ccccc1N(C)C(=O)c1cnn(CC)c1 read -1.976%. With NCCNS(=O)(=O)c1ccc(F)c(Br)c1 the screen gave 1.756%. CCCc1noc(COc2ccccc2C(N)=O)n1 read 28.75%.

CCC(O)CNCc1ccccc1 (configuration not stated) read -22.69%. N#CCCNC(=O)COc1cc(Cl)ccc1C(N)=O gave -23.29%. CC[C@H](C)[C@H](NC(=O)c1cc(=O)c(OC)c[nH]1)C(N)=O read -3.908%. Result for O=C(C1CCCN1CC1CCNCC1)N1CCSCC1 (configuration not stated) was -4.594%.

For CC(C)(C)c1nc(CN2CCn3ccnc3C2)no1 the result was -3.563%. With CCn1ncnc1CN1CCC(NS(C)(=O)=O)CC1 the screen gave -19.94%. Result for Cc1ccccc1C1(O)CCNCC1 was 29.37%. CNC(=O)C1CCCN(C(=O)C(C)(C)C)C1 (configuration not stated) read -9.411%.

CC(Cc1cccs1)C(=O)N1CC[C@H](O)C1 (some centres not stated) read 12.84%. COCC(N)C1CCOCC1 (configuration not stated) read -1.215%. With CC(=O)NC(CC(=O)N1CCCC1)c1ccc(Cl)cc1 (configuration not stated) the screen gave -2.492%. Cc1nccn1CCCN1CCN(C2CCNC2)CC1 (configuration not stated) read 13.85%.

With O=C(COc1ccccc1)Nn1cnnc1 the screen gave -16.7%. With CCN1CCN(Cc2nc(-c3ccccc3)no2)CC1 the screen gave 6.837%. For Cc1cccc2ncn(C)c(=O)c12 the result was 4.013%. CCCNC(=O)C1CCCNC1 (configuration not stated) read 0.9282%.

C[C@H](CCO)NC1CCC2(CC1)OCCO2 read -5.248%. Result for Fc1cccc2c1CNCCO2 was 36.23%. With Cn1c(CNC(=O)NCC(F)(F)F)nnc1C1CCC1 the screen gave -3.544%.

Some entries from above, unchanged:

| Compound | percent effect |
|---|---|
| `Cc1nccn1CCCN1CCN(C2CCNC2)CC1` (configuration not stated) | 13.85% |
| `Cc1cccc(-n2nnnc2C(C)(C)N2CCCC2)c1` | -9.882% |
| `Cc1ccc2c(c1)OCCN2C(=O)c1cnsn1` | -9.54% |
| `CC(C)OCC(=O)N1C[C@H](C2CC2)[C@@H](N)C1` | 5.615% |

Measurements from “University of Dundee, Small-Polar-MMV Screening Library” (2021), ChEMBL document CHEMBL3988442.